# Reference: patent publication US8735575B2, “Phenoxazine derivatives and methods of use thereof” (Washington University, priority 2010, dated 2014)
# Assay: Fluorescent intensity of compound at 10 uM in H2O
# Type: physicochemical
# Details: resorufin = 1
row,SMILES,Fluorescent Intensity Relative
1,COc1ccc2nc3ccc(=O)cc-3oc2c1 [Methoxy-resorufin],0.52
2,CCOc1ccc2nc3ccc(=O)cc-3oc2c1 [Ethoxy-resorufin],0.65
3,COc1ccc(COc2ccc3nc4ccc(=O)cc-4oc3c2)cc1 [WC-5-5],0.08
4,CC(=O)Oc1ccc2nc3ccc(=O)cc-3oc2c1 [Resorufin acetate],0.14
5,COc1cccc(COc2ccc3nc4ccc(=O)cc-4oc3c2)c1 [WC-5-4],0.10
6,C#COc1ccc2nc3ccc(=O)cc-3oc2c1 [WC-5-1],0.29
7,O=c1ccc2nc3ccc(OCCF)cc3oc-2c1 [WC-5-2],0.21
8,O=c1ccc2nc3ccc(OCc4ccc(OCCF)cc4)cc3oc-2c1 [WC-5-7],0.07
9,O=c1ccc2nc3ccc(OCc4cn(CCF)nn4)cc3oc-2c1 [WC-5-3],0.62
10,CCCCCOc1ccc2nc3ccc(=O)cc-3oc2c1 [Pentoxy-resorufin],0.11
11,O=c1ccc2nc3ccc(OCc4ccccc4)cc3oc-2c1 [Benzyloxy-resorufin],0.08
